According to paper doi:10.1101/2022.12.12.520165:
No constants are given. Whether binding was seen depends on the method and setting. For some assays here: Binding seen in cells or lysates may run through a third protein. Some results given as binding are weak or reduced against the parent protein; the word gives no strength. For some assays here: Sequences can lack the tags named with a protein.

Sequences of proteins named here, by UniProt entry; tags and fusion partners are left off. A change or cut given only in a name is not applied to a line headed by its entry.
UniProt Q7Z5G4, whole entry: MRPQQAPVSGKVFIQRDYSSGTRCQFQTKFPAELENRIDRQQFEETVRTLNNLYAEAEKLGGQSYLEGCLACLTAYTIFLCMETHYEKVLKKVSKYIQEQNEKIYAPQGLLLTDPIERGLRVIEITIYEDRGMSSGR

T1: Erf4 (yeast) (UniProt P41912)
T1 sequence: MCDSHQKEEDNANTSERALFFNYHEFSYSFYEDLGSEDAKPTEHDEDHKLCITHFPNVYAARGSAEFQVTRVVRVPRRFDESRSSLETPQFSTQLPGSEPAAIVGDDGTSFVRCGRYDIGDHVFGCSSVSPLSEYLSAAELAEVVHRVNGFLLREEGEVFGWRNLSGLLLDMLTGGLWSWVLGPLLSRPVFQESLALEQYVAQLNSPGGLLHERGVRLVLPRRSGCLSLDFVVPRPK


What was measured:
[1] = molecular target: T1, Erf4 (yeast); experiment: co-purification
[2] = molecular target: GCP16 with a N-terminal His tag (human) (UniProt Q7Z5G4); experiment: pull-down + SEC

| binding [1] | binding [2] | Binder |
| --- | --- | --- |
| binds | – | C203A catalytic dead mutant of Erf2 (enzyme, UniProt Q06551 1-359) MALVSRRSTRSESTSITKEEHTGEGSLTKLFFRWLVTLEGDQDINDGKGYISLPNVSNYIFFLGGRFRTVKGAKPLWLGVLLAIVCPMVLFSIFEAHKLWHTQNGYKVLVIFFYYFWVITLASFIRTATSDPGVLPRNIHLSQLRNNYQIPQEYYNLITLPTHSSISKDITIKYCPSCRIWRPPRSSHCSTCNVCVMVHDHHAIWVNNCIGKRNYRFFLIFLLGAILSSVILLTNCAIHIARESGGPRDCPVAILLLCYAGLTLWYPAILFTYHIFMAGNQQTTREFLKGIGSKKNPVFHRVVKEENIYNKGSFLKNMGHLMLEPRGPSFVSARKPHEAGDWRFMDLSPAHSFEKIQKI |
| – | binds | DHHC18 with a C-terminal FLAG tag (enzyme, UniProt Q9NUE0 1-388) MKDCEYQQISPGAAPLPASPGARRPGPAASPTPGPGPAPPAAPAPPRWSSSGSGSGSGSGSLGRRPRRKWEVFPGRNRFYCGGRLMLAGHGGVFALTLLLILTTTGLFFVFDCPYLARKLTLAIPIIAAILFFFVMSCLLQTSFTDPGILPRATVCEAAALEKQIDNTGSSTYRPPPRTREVLINGQMVKLKYCFTCKMFRPPRTSHCSVCDNCVERFDHHCPWVGNCVGRRNYRFFYAFILSLSFLTAFIFACVVTHLTLRAQGSNFLSTLKETPASVLELVICFFSIWSILGLSGFHTYLVASNLTTNEDIKGSWSSKRGGEASVNPYSHKSIITNCCAVLCGPLPPSLIDRRGFVQSDTVLPSPIRSDEPACRAKPDASMVGGHP |
